Measurements as given in PubChem BioAssay AID771 (SRMLSC, 2007).
This is one part of the list.

assay: HT29 colon tumor cell growth inhibition, primary screen, imaging, high content imaging, 48 h, CellTiter-Glo (AID 771); details: HCS imaging cell count, at 10 µM, stronger effect = higher value; condensed nuclei: measured here: percent cells with condensed nuclei; growth inhibition: measured here: ATP CellTiter-Glo viability inhibition;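 for condensed nuclei: condensed means Hoechst nuclear area under control median minus 1.5 SD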

| Structure (SMILES) | condensed nuclei [%] | growth inhibition [%] |
| --- | --- | --- |
| CCN(CC)CC(O)COC(=O)C(O)(c1ccccc1)C1CCCCC1 (stereo unspecified) | 4.82 | 49.3 |
| Cc1ccc(OCC(=O)OC2CN3CCC2CC3)cc1 (stereo unspecified) | 1.92 | -8.18 |
| Cc1cccc(OCC(=O)OC2CN3CCC2CC3)c1 (stereo unspecified) | 0.84 | -5.98 |
